From patent US20040029197A1, “Novel human cancer/testis antigen and gene thereof” (priority 2000, published 2004)
No constants are given. Whether binding was seen depends on the method and setting. Some entries that bind do so weakly or less than the wild type.

By UniProt entry, the sequences of proteins in these tests, tags left out. Where a name states a change or a piece, a line headed by the entry shows the natural chain unless it says otherwise.
UniProt P04386: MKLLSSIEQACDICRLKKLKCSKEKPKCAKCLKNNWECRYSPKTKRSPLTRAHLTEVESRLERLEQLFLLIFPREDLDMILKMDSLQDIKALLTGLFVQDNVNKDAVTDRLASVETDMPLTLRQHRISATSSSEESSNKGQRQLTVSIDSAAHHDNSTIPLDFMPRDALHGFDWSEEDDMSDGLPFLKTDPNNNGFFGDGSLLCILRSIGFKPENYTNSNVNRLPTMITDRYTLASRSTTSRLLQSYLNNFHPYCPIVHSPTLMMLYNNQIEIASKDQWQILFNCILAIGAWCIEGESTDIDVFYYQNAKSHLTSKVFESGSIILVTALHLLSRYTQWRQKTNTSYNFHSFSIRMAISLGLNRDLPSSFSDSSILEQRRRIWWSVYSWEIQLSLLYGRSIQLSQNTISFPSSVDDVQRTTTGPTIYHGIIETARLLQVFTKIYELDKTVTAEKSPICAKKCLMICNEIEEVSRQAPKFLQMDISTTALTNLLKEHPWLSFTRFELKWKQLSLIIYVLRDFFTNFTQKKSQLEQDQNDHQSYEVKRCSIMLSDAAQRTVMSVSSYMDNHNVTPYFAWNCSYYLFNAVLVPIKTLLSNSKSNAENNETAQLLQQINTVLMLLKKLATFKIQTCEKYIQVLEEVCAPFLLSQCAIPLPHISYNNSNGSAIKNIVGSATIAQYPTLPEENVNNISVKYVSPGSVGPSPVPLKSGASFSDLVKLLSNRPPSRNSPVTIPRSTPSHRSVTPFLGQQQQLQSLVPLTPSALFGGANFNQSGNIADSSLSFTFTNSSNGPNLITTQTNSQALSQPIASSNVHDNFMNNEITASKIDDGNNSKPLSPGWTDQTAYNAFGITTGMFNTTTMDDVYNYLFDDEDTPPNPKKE
UniProt P16383: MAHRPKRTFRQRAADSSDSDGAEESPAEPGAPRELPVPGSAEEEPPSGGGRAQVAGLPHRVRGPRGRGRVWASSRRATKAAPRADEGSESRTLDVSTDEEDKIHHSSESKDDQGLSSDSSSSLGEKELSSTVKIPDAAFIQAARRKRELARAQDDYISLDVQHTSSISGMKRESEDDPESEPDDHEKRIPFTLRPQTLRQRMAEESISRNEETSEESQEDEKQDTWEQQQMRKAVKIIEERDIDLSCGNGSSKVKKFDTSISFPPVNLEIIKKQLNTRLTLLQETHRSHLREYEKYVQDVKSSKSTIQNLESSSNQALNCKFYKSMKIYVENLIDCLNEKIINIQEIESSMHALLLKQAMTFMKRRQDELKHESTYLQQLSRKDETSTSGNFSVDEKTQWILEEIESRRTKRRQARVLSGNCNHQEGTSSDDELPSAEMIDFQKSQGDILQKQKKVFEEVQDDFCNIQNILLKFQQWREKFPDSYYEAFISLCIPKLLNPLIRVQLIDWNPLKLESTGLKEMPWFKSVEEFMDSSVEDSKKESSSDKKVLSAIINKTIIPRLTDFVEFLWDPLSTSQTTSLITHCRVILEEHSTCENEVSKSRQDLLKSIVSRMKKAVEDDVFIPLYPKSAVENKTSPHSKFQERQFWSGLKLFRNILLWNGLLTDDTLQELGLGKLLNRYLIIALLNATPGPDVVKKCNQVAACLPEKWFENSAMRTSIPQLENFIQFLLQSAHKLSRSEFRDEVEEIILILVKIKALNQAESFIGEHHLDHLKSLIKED
UniProt Q8NG31: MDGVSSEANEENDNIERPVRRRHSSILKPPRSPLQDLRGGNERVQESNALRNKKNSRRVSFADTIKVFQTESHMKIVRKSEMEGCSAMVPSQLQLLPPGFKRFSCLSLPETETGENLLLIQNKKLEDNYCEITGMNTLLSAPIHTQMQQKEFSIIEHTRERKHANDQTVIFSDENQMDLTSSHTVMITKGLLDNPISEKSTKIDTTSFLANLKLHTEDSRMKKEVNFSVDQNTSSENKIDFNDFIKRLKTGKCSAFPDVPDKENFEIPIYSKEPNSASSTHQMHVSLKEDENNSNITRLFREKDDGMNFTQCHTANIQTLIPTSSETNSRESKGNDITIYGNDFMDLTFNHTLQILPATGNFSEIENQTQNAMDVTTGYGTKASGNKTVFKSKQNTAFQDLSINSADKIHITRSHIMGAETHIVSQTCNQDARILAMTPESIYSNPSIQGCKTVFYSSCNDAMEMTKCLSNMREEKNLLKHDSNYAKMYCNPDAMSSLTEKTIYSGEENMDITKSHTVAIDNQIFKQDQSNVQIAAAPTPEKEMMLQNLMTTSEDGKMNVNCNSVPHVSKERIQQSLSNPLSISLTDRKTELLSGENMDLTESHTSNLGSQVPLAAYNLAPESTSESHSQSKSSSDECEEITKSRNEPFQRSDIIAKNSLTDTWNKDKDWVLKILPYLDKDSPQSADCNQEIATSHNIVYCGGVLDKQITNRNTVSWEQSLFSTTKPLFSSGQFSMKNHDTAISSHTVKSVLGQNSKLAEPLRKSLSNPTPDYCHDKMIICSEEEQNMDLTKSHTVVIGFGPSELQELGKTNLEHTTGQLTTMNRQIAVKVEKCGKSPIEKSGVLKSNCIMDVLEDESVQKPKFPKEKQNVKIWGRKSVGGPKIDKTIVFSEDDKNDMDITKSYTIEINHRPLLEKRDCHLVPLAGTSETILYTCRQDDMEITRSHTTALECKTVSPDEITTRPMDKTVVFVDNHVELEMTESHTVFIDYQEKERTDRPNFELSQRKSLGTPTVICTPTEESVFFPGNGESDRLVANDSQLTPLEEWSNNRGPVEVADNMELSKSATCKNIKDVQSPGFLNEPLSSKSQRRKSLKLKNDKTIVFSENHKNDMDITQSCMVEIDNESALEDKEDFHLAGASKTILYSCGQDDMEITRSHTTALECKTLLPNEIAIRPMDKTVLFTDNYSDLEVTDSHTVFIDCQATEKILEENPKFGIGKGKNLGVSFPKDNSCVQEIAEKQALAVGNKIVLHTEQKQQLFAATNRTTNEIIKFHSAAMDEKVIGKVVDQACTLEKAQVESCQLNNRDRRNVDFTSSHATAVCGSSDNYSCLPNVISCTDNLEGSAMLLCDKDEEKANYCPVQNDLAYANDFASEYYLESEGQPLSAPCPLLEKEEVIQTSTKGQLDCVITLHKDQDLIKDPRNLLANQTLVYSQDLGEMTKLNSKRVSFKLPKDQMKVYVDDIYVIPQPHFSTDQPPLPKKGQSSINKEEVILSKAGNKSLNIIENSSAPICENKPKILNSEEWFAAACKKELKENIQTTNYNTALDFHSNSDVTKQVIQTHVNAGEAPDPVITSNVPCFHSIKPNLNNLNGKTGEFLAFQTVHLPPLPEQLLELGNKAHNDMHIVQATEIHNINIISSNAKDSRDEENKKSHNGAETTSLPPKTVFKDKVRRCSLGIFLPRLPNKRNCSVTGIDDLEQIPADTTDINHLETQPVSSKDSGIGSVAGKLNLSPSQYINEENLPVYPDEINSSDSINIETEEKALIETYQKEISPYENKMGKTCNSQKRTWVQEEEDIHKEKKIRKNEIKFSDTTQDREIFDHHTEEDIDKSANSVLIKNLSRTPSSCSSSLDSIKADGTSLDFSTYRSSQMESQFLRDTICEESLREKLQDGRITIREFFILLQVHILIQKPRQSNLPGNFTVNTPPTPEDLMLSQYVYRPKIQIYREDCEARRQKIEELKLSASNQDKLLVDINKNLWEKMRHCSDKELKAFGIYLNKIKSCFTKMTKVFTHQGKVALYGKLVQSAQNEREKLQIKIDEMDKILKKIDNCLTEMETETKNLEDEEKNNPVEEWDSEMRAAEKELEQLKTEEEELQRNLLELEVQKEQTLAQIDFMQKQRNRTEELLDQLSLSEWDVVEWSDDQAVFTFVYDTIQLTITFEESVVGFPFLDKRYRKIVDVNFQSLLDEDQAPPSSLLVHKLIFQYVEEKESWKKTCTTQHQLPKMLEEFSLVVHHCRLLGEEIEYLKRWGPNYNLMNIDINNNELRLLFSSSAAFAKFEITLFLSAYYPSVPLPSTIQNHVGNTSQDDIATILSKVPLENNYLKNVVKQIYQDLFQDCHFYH

Biological target: GalDBD-GCF (fusion protein of the DNA-binding domain of Gal4 and transcription factor GCF, from plasmid pGAL-GCF) (yeast) (UniProt P04386+P16383)
Experiment: yeast Two-hybrid System (His3 and LacZ reporters), Gal4 DBD-GCF bait against a human B cell cDNA library clone

## D40 (protein encoded by the D40 cDNA clone isolated in the yeast Two-hybrid screen) (from UniProt Q8NG31 1-911)
  binding: binds
